Data reported in paper PMC12137164.

Protein sequences, listed by entry. Tags and fused reporters are not part of them.
UniProt Q9UKL0: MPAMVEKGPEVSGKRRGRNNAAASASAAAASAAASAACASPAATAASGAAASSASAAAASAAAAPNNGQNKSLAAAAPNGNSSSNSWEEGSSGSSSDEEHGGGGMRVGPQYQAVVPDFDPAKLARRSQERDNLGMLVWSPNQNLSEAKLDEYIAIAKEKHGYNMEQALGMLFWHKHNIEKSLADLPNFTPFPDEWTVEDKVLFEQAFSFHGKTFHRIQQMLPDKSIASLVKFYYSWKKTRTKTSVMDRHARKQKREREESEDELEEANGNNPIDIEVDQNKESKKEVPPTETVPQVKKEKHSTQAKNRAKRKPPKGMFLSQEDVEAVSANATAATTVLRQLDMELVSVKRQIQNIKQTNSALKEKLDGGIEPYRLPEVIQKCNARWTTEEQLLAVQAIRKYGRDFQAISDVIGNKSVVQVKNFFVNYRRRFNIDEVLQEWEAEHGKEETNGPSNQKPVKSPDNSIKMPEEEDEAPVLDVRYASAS

Biological target: T1, hexokinase domain-containing protein 1 (HKDC1) (human (endogenous in SW620 and DLD1)) (UniProt Q2TB90)
T1 sequence: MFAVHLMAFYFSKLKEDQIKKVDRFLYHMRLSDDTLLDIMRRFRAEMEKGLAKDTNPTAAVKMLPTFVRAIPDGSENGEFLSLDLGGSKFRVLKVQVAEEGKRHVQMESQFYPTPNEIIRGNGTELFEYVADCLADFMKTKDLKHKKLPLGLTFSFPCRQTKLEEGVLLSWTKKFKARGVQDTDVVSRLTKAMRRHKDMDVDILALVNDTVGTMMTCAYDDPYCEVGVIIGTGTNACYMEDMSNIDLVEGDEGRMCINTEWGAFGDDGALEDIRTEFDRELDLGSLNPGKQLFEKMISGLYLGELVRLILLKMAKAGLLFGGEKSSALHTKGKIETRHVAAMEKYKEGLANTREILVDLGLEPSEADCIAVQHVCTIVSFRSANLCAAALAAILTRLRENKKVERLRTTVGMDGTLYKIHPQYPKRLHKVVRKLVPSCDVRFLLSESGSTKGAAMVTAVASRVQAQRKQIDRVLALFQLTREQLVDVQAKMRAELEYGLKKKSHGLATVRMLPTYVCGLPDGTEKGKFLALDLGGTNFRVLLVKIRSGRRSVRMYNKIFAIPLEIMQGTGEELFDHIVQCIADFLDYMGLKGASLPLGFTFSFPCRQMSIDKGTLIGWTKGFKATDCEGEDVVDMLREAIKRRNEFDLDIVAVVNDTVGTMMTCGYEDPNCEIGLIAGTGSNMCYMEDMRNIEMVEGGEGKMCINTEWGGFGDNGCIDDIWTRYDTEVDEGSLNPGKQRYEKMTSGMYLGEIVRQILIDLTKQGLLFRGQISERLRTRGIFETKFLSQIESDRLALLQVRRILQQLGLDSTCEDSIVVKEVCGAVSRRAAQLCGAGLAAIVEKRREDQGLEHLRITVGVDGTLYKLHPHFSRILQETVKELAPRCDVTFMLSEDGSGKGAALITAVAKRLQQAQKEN
Experiment: affinity purification with mass spectrometry; Co-IP followed by mass spectrometry to find partners of HKDC1; cell line and precipitating antibody not stated for this experiment

binding: binds
Substance: REST Corepressor 1 (RCOR1) (from UniProt Q9UKL0 1-485)

No constants are given. Whether binding was seen depends on the method and setting. In cells and extracts the contact can be indirect. A yes stands for co-enrichment or nearness to the bait. Other partners may have been found.
